For test [1], the target named is T1, rPODXL-v2-Fc fusion protein (human) (UniProt O00592).
T1 sequence (highly glycosylated, looked up): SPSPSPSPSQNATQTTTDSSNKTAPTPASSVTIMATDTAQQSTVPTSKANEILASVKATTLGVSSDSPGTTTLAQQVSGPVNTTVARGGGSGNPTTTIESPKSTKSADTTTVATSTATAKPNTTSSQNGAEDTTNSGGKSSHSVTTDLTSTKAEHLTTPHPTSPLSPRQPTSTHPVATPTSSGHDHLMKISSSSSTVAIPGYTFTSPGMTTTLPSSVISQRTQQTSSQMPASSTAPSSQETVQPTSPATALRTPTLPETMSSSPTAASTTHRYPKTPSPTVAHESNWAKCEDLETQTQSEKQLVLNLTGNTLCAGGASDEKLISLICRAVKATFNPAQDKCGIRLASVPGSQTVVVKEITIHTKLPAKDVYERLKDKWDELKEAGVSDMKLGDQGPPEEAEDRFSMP
The experiment in a line: direct ELISA, detection with HRP-conjugated anti-6xHis mAb. For orientation: In an ELISA, binding on a coated surface is turned into a signal by an enzyme label.

Test [2] has as its target T2, podocalyxin-like protein isoform 2 precursor (PODXL-v2) of gastric cancer cells (human) (UniProt O00592).
T2 sequence (looked up): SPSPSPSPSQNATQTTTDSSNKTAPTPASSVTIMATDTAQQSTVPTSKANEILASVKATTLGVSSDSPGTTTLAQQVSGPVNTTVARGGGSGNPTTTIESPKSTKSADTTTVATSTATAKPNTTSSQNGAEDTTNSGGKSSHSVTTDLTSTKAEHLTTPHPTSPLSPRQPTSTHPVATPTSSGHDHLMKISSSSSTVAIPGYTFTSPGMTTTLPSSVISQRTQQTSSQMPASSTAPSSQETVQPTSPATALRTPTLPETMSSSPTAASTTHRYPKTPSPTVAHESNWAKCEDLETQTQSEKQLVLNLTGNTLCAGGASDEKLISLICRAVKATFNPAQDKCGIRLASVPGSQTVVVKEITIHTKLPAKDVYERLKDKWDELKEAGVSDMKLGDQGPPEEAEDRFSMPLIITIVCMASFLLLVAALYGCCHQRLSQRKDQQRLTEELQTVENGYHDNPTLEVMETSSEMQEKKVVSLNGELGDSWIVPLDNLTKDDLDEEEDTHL
The test can be described thus: immunoprecipitation from cell membrane fractions, Western blot. Background: In western blotting, separated proteins are transferred to a membrane and probed.

Test [3] has as its target T2, podocalyxin-like protein isoform 2 precursor (PODXL-v2) of gastric cancer cells (human). The experiment in a line: immunocytochemistry on BGC823, MKN45 and GES-1 cells.
Test [4] has the same target. The test can be described thus: Western blot of MKN45 lysates after siRNA knock-down.
Test [5] shares this target. The test can be described thus: Western blot after siRNA knock-down.
The target of test [6] is T1, rPODXL-v2-Fc fusion protein (human). The test can be described thus: BLI (Octet QKe), mAb captured on anti-mouse IgG Fc (AMC) biosensors. A general note: Biolayer interferometry detects binding as a change in optical thickness at a sensor tip.
For test [7] the target is unchanged. The experiment in a line: direct and indirect ELISA.
Test [8] concerns the target T2, podocalyxin-like protein isoform 2 precursor (PODXL-v2) of gastric cancer cells (human). The test can be described thus: cell staining analysis of gastric cancer cells.
The target is the same in test [9]. The test can be described thus: immunocytochemistry on cytospin slides.
Test [10] deals with T1, rPODXL-v2-Fc fusion protein (human). The experiment in a line: ELISA (data not shown).

Results are given in words; binding and its absence hold for the method and conditions named. Some entries that bind do so weakly or less than the wild type. For some assays here: Sequences can lack the tags named with a protein.

We go through four molecules from patent US20210139602A1 (MEDABOME, published 2021).

B1: MAI1738-HL-His (scFv)
scFv: EVKLVESGGGLVKPGGSLKVSCAASGFTFSTYTMSWVRQTPEKRLEWVATISGGVIYTYYPDSVKGRFTISRDDAKNTLYLQMSSLRSEDTALYYCARHYSNYEGQGMDSWGQGTSVTVSSAKTTPPSDGGGGSGGGGSGGGGSDIVLTQSPVTLSVTPGDSVSLSCRASQSINNNLHWYQQKSHESPRLLIKYASQSISGIPPRFSGSRSGTDFTLSINTVETEDFGVYFCQQSNSWPLTFGAGTKLELKRADAAPTVSHHHHHH
For the molecule B1, the binding result in [1] is “binds”.

B2: MAI1738-LH-His (scFv)
scFv: DIVLTQSPVTLSVTPGDSVSLSCRASQSINNNLHWYQQKSHESPRLLIKYASQSISGIPPRFSGSRSGTDFTLSINTVETEDFGVYFCQQSNSWPLTFGAGTKLELKRADAAPTVSGGGGSGGGGSGGGGSEVKLVESGGGLVKPGGSLKVSCAASGFTFSTYTMSWVRQTPEKRLEWVATISGGVIYTYYPDSVKGRFTISRDDAKNTLYLQMSSLRSEDTALYYCARHYSNYEGQGMDSWGQGTSVTVSSAKTTPPSDHHHHHH
B2: in test [1], the binding result is “binds”.

B3: MAI1738 mAb (antibody, V domains shown)
VH: EVKLVESGGGLVKPGGSLKVSCAASGFTFSTYTMSWVRQTPEKRLEWVATISGGVIYTYYPDSVKGRFTISRDDAKNTLYLQMSSLRSEDTALYYCARHYSNYEGQGMDSWGQGTSVTVSS
VL: DIVLTQSPVTLSVTPGDSVSLSCRASQSINNNLHWYQQKSHESPRLLIKYASQSISGIPPRFSGSRSGTDFTLSINTVETEDFGVYFCQQSNSWPLTFGAGTKLELKR
notes: Mouse monoclonal antibody from a hybridoma (A/J mice); it is detected with anti-mouse IgG-Fc; also called anti-PODXL-v2 monoclonal antibody; second subclone of MS17-38
For the molecule B3, the binding result in test [2], in test [3], in [4], in test [5], in test [6] and in test [7] was “binds” throughout. Moreover, the binding result in [8] and in test [9] was “binds” in each case.

B4: MAI1738 chimeric antibody (chiAb) (antibody, V domains shown, not shown: a dimerising Fc or GST)
VH: B3 VH
VL: B3 VL
For the molecule B4, the binding result in test [10] is given as “binds”.
